Results: US20250250350A1
No constants are given. Whether binding was seen depends on the method and setting. Some binding calls cover weakened binding; strength is not graded here.

Chains of the proteins cited; added tags and fusions are not shown. Residues count along the entry.
UniProt P10696, residues 20-503: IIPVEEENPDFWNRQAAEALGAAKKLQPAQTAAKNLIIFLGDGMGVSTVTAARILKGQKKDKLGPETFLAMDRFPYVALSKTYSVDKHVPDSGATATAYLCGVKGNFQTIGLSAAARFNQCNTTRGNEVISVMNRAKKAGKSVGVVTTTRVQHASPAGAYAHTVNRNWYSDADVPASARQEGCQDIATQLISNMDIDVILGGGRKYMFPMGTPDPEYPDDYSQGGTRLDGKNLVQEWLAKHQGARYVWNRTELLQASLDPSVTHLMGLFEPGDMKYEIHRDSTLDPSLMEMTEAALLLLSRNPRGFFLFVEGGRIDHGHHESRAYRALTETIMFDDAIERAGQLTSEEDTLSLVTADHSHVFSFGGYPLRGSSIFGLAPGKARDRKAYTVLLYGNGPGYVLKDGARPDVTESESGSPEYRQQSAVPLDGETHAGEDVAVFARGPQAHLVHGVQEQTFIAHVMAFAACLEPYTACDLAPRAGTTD

Experiments:
ALPG-AF647 (human) [1] = target: ALPG-AF647 (human) (UniProt P10696); assay: flow cytometry of engineered primary T cells; transgene+ by staining with ALPG-AF647 and MSLN-Bio / streptavidin-PE
ALPG-AF647 (human) [2] = target: ALPG-AF647 (human) (UniProt P10696); assay: flow cytometry, engineered primary T cells after manufacture (no ALPG priming), stained with ALPG-AF647 (PrimeR axis) and MSLN-Bio / streptavidin-PE (CAR axis)

binding (ALPG-AF647 (human) [1]): binds
binding (ALPG-AF647 (human) [2]): binds
B1: ALPG/P priming receptor of the AB-1013, AB-1014 and AB-1015 circuits (protein)
chain: DIQMTQSPSSLSASVGDRVTITCRASENIYSYVAWYQQKPGKAPKLLIYNAKSLASGVPSRFSGSGSGTDFTLTISSLQPEDFATYYCQHHYVSPWTFGGGTKLEIKGGGGSGGGGSGGGGSQVQLQESGPGLVKPSETLSLTCTVSGFSLTSYGVSWIRQPAGKGLEWIGVIWEDGSTNYHSALISRVTMSVDTSKNQFSLKLSSVTAADTAVYYCARPHYGSSYVGAMEYWGAGTTVTVSSATTTPAPRPPTPAPTIASQPLSLRPEACFMYVAAAAFVLLFFVGCGVLLSRKRRRQHGQLWFPEGFKVSEASKKKRREPLGEDSVGLKPLKNAMVSKLSQLQTELLAALLESGLSKEALLQALGEPGPYLLAGEGPLDKGESCGGGRGELAELPNGLGETRGSEDETDDDGEDFTPPILKELENLSPEEAAHQKAVVETLLQEDPWRVAKMVKSYLQQHNIPQREVVDTTGLNQSHLSQHLNKGTPMKTQKRAALYTWYVRKQREVAQQFTHAGQGGLIEEPTGDELPTKKGRRNRFKWGPASQQILFQAYERQKNPSKEERETLVEECNRAECIQRGVSPSQAQGLGSNLVTEVRVYNWFANRRKEEAFRHKLAMTCRDEFPTMVFPSGQISQASALAPAPPQVLPQAPAPAPAPAMVSALAQAPAPVPVLAPGPPQAVAPPAPKPTQAGEGTLSEALLQLQFDDEDLGALLGNSTDPAVFTDLASVDNSEFQQLLNQGIPVAPHTTEPMLMEYPEAITRLVTGAQRPPDPAPAPLGAPGLPNGLLSGDEDFSSIADMDFSALLSQISS
